# Results are given in words; binding and its absence hold for the method and conditions named. Binding seen in cells or lysates may run through a third protein. Here binding means that the protein was enriched with, or labelled near, the bait; the list need not be complete.
# Amino acid sequences for entries named in this document (tags omitted).
# UniProt Q9BQQ3: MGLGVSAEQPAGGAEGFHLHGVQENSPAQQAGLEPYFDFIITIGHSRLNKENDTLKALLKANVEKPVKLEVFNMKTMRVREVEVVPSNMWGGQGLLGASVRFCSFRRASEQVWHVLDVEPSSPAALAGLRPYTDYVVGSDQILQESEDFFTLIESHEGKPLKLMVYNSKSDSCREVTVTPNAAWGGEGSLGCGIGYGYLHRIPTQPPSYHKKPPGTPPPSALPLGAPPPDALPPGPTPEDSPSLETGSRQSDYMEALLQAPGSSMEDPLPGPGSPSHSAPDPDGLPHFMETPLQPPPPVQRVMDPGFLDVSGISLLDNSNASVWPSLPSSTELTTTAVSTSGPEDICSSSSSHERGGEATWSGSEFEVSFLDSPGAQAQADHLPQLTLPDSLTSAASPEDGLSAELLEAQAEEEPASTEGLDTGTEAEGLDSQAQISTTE
# UniProt P51114: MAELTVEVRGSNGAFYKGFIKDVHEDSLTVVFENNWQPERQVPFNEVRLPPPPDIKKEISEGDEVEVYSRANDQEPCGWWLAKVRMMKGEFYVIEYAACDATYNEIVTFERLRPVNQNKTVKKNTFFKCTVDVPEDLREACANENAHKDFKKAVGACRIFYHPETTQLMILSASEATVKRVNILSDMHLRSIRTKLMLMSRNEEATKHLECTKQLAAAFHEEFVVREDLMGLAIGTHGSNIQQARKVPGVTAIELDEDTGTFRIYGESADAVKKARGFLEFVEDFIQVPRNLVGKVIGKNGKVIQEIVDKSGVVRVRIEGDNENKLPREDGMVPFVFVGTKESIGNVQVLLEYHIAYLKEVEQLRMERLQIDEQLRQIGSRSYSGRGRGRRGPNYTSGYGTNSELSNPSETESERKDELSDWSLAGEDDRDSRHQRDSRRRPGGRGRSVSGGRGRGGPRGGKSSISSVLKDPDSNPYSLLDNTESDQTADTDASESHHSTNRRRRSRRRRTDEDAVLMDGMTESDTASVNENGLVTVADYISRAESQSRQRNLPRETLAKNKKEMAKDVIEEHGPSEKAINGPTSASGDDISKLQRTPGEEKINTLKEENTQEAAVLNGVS
# UniProt Q13283: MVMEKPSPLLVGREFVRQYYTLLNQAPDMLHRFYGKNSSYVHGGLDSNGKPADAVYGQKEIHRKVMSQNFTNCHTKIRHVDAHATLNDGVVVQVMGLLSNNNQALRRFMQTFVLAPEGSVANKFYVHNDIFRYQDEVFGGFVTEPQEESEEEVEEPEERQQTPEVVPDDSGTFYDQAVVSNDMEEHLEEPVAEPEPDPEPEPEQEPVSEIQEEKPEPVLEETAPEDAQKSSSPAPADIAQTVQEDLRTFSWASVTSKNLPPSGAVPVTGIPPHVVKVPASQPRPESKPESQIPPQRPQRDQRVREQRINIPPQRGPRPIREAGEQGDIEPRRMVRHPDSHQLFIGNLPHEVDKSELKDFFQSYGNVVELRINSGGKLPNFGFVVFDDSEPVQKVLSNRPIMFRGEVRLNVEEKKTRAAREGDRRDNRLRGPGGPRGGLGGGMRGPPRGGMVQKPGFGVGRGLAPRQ
# UniProt P11940: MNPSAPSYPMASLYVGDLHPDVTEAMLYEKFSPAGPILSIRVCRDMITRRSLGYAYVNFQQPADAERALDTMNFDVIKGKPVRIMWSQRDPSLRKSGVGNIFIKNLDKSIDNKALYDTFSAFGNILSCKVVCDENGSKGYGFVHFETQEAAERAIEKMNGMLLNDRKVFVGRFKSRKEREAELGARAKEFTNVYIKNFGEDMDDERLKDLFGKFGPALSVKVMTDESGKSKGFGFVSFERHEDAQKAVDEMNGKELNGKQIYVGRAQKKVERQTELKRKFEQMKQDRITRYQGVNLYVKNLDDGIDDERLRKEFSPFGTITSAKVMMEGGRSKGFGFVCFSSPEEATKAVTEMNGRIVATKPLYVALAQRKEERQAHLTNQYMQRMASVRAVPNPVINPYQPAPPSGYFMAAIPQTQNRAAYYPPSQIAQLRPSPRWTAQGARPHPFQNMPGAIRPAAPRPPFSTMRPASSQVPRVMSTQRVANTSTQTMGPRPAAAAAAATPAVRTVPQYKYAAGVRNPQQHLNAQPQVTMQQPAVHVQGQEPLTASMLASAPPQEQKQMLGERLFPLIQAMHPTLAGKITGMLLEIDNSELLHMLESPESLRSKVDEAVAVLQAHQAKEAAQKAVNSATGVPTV
# B1: GM130 (protein, UniProt Q08379 1-1002)
# chain: MWPQPRLPPRPAMSEETRQSKLAAAKKKLREYQQRNSPGVPTGAKKKKKIKNGSNPETTTSGGCHSPEDTPKDNAATLQPSDDTVLPGGVPSPGASLTSMAASQNHDADNVPNLMDETKTFSSTESLRQLSQQLNGLVCESATCVNGEGPASSANLKDLESRYQQLAVALDSSYVTNKQLNITIEKLKQQNQEITDQLEEEKKECHQKQGALREQLQVHIQTIGILVSEKAELQTALAHTQHAARQKEGESEDLASRLQYSRRRVGELERALSAVSTQQKKADRYNKELTKERDALRLELYKNTQSNEDLKQEKSELEEKLRVLVTEKAGMQLNLEELQKKLEMTELLLQQFSSRCEAPDANQQLQQAMEERAQLEAHLGQVMESVRQLQMERDKYAENLKGESAMWRQRMQQMSEQVHTLREEKECSMSRVQELETSLAELRNQMAEPPPPEPPAGPSEVEQQLQAEAEHLRKELEGLAGQLQAQVQDNEGLSRLNREQEERLLELERAAELWGEQAEARRQILETMQNDRTTISRALSQNRELKEQLAELQSGFVKLTNENMEITSALQSEQHVKRELGKKLGELQEKLSELKETVELKSQEAQSLQQQRDQYLGHLQQYVAAYQQLTSEKEVLHNQLLLQTQLVDQLQQQEAQGKAVAEMARQELQETQERLEAATQQNQQLRAQLSLMAHPGEGDGLDREEEEDEEEEEEEAVAVPQPMPSIPEDLESREAMVAFFNSAVASAEEEQARLRGQLKEQRVRCRRLAHLLASAQKEPEAAAPAPGTGGDSVCGETHRALQGAMEKLQSRFMELMQEKADLKERVEELEHRCIQLSGETDTIGEYIALYQSQRAVLKERHREKEEYISRLAQDKEEMKVKLLELQELVLRLVGDRNEWHGRFLAAAQNPADEPTSGAPAPQELGAANQQGDLCEVSLAGSVEPAQGEAREGSPRDNPTAQQIMQLLREMQNPRERPGLGSNPCIPFFYRADENDEVKITVI
# Biological target: GRASP65-3xFlag-mAID (human (endogenous in RC65, SV589-derived)) (UniProt Q9BQQ3)
# Assay: affinity purification with mass spectrometry
row,Molecule,binding
1,FXR1 (Fragile X mental retardation syndrome-related protein 1) (from UniProt P51114 1-621),binds
2,G3BP1 (G3BP Stress Granule Assembly Factor 1) (from UniProt Q13283 1-466),binds
3,PABPC1 (PABP/Polyadenylate-binding protein 1) (from UniProt P11940 1-636),binds
4,B1,binds

# Source: paper doi:10.1101/2023.03.02.530905 (bioRxiv, 2023)
